Measurements from publication PMC11022410 (Beilstein Journal of Organic Chemistry, 2024).

Assay: general procedure: Fmoc solid-phase peptide synthesis; 2-chlorotrityl resin; HCTU/NMM (chain assembly); HBTU/DIPEA (C60 conjugation)
[1] = whole synthesis, total peptide synthesis, scale of the general procedure 500 mg resin

PEPTIDE1{[C60pyrGlt].[GABA].E.E.E.E.E}|PEPTIDE2{[GABA].E.E.E.E.E}$PEPTIDE1,PEPTIDE2,1:R3-1:R1$$$V2.0
difficulty met (conjugation step): could not be isolated by HPLC, especially in the presence of an oligo-Glu impurity
isolated mass (whole synthesis): 12.6 mg
isolated yield [1]: 36%

PEPTIDE1{[C60pyrGlt].[GABA].K.K.K.K.K}|PEPTIDE2{[GABA].K.K.K.K.K}$PEPTIDE1,PEPTIDE2,1:R3-1:R1$$$V2.0
isolated mass (whole synthesis): 11.2 mg
isolated yield [1]: 32%

PEPTIDE1{[C60pyrGlt].[GABA].R.R.R.R.R}|PEPTIDE2{[GABA].R.R.R.R.R}$PEPTIDE1,PEPTIDE2,1:R3-1:R1$$$V2.0
crude mass (whole synthesis): crude 37.2 mg
crude yield (whole synthesis, crude yield, total peptide synthesis, scale of the general procedure 500 mg resin): 66%

Strings that start with PEPTIDE1 are HELM notation: dots part the residues, brackets hold end groups and non-standard residues.
